Reference: the supplement of paper PMC9671908
Structures can show the parent of a compound that is named as a salt. This is one part of the list. Repeats are few or missing, and single values can be far off.

System: MIA PaCa-2 parental
Experiment: parental cell viability relative to untreated parental control; higher = more surviving cells
Settings: treatment time: 9 days

SMILES | parental cell viability [%]
c1ccc([C@@H]2C[C@H]2NC2CCNCC2)cc1 [GSK-LSD1 (hydrochloride)] (inhibitor concentration: 30µM) | 93
C/C=C(\C)[C@H](O)[C@H](C)/C=C(C)/C=C/C/C(C)=C/Cc1nc(OC)c(OC)c(O)c1C [Piericidin A] (inhibitor concentration: 10µM) | 101
CO/C1=C\C(C)=C\[C@@H](C)[C@@H](O)[C@@H](C)C/C(C)=C/C=C/[C@H](OC)[C@@H]([C@@H](C)[C@@H](O)[C@H](C)[C@@]2(O)C[C@@H](O)[C@H](C)[C@@H](C(C)C)O2)OC1=O [Bafilomycin A1] (inhibitor concentration: 2nM) | 70
O=C(O)c1sc2cc(Cl)ccc2c1Cl [3,6-dichloro-benzo[b]  thiophene-2-Carboxylic Acid] (inhibitor concentration: 30µM) | 100
C=C1[C@@H](O)[C@@H]2O[C@]3(CC[C@H](/C=C/[C@@H](C)[C@@H]4CC(C)=C[C@@]5(O[C@H](C[C@@](C)(O)C(=O)O)CC[C@H]5O)O4)O3)CC[C@H]2O[C@@H]1[C@@H](O)C[C@H](C)[C@H]1O[C@@]2(CCCCO2)CC[C@H]1C [Okadaic Acid] (inhibitor concentration: 5nM) | 100
O=c1[nH]c2ccc(Cl)cc2c(N[C@@H]2CN3CCC2CC3)c1-c1nc2ccccc2[nH]1 (inhibitor concentration: 30nM) | 101
CCNC(=O)C[C@@H]1N=C(c2ccc(Cl)cc2)c2cc(OC)ccc2-n2c(C)nnc21 (inhibitor concentration: 1µM) | 100
C=C(C)[C@H]1Cc2c(ccc3c2O[C@@H]2COc4cc(OC)c(OC)cc4[C@@H]2C3=O)O1 [Rotenone] (inhibitor concentration: 100nM) | 70
O=c1[nH]c2ccccc2n1C1CCN(Cc2ccc(-c3[nH]c4cc5ncnc5cc4nc3-c3ccccc3)cc2)CC1 [Akt Inhibitor VIII] (inhibitor concentration: 10µM) | 18

System: MIA PaCa-2 persister
Experiment: persister cell viability relative to untreated persister control; higher = more surviving persister cells
Settings: treatment time: 9 days; cell state: persister (100 nM gemcitabine + 100 nM Torin1)

SMILES | persister cell viability [%]
c1ccc([C@@H]2C[C@H]2NC2CCNCC2)cc1 [GSK-LSD1 (hydrochloride)] (inhibitor concentration: 30µM) | 109
C/C=C(\C)[C@H](O)[C@H](C)/C=C(C)/C=C/C/C(C)=C/Cc1nc(OC)c(OC)c(O)c1C [Piericidin A] (inhibitor concentration: 10µM) | 101
CO/C1=C\C(C)=C\[C@@H](C)[C@@H](O)[C@@H](C)C/C(C)=C/C=C/[C@H](OC)[C@@H]([C@@H](C)[C@@H](O)[C@H](C)[C@@]2(O)C[C@@H](O)[C@H](C)[C@@H](C(C)C)O2)OC1=O [Bafilomycin A1] (inhibitor concentration: 2nM) | 10
O=C(O)c1sc2cc(Cl)ccc2c1Cl [3,6-dichloro-benzo[b]  thiophene-2-Carboxylic Acid] (inhibitor concentration: 30µM) | 104
C=C1[C@@H](O)[C@@H]2O[C@]3(CC[C@H](/C=C/[C@@H](C)[C@@H]4CC(C)=C[C@@]5(O[C@H](C[C@@](C)(O)C(=O)O)CC[C@H]5O)O4)O3)CC[C@H]2O[C@@H]1[C@@H](O)C[C@H](C)[C@H]1O[C@@]2(CCCCO2)CC[C@H]1C [Okadaic Acid] (inhibitor concentration: 5nM) | 5
O=c1[nH]c2ccc(Cl)cc2c(N[C@@H]2CN3CCC2CC3)c1-c1nc2ccccc2[nH]1 (inhibitor concentration: 30nM) | 5
CCNC(=O)C[C@@H]1N=C(c2ccc(Cl)cc2)c2cc(OC)ccc2-n2c(C)nnc21 (inhibitor concentration: 1µM) | 25
C=C(C)[C@H]1Cc2c(ccc3c2O[C@@H]2COc4cc(OC)c(OC)cc4[C@@H]2C3=O)O1 [Rotenone] (inhibitor concentration: 100nM) | 60
O=c1[nH]c2ccccc2n1C1CCN(Cc2ccc(-c3[nH]c4cc5ncnc5cc4nc3-c3ccccc3)cc2)CC1 [Akt Inhibitor VIII] (inhibitor concentration: 10µM) | 55

2 entries drawn at random from the list so far, as already listed:
SMILES | persister cell viability [%]
O=C(O)c1sc2cc(Cl)ccc2c1Cl [3,6-dichloro-benzo[b]  thiophene-2-Carboxylic Acid] (inhibitor concentration: 30µM) | 104
O=c1[nH]c2ccc(Cl)cc2c(N[C@@H]2CN3CCC2CC3)c1-c1nc2ccccc2[nH]1 (inhibitor concentration: 30nM) | 5
